# Results published in the supplement of paper PMC10849652.
# By UniProt entry, the sequences of proteins in these tests, tags left out. Where a name states a change or a piece, a line headed by the entry shows the natural chain unless it says otherwise.
# UniProt Q9P2T1: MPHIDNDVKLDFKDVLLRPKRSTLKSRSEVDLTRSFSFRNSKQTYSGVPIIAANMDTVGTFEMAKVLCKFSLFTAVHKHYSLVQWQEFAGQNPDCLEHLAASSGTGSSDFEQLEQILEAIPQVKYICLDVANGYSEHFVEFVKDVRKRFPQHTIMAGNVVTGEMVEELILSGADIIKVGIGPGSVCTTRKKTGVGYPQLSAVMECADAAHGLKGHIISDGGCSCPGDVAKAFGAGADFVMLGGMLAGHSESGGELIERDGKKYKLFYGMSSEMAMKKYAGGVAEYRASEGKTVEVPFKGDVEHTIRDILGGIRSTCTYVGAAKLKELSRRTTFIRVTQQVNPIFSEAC
# UniProt O15228: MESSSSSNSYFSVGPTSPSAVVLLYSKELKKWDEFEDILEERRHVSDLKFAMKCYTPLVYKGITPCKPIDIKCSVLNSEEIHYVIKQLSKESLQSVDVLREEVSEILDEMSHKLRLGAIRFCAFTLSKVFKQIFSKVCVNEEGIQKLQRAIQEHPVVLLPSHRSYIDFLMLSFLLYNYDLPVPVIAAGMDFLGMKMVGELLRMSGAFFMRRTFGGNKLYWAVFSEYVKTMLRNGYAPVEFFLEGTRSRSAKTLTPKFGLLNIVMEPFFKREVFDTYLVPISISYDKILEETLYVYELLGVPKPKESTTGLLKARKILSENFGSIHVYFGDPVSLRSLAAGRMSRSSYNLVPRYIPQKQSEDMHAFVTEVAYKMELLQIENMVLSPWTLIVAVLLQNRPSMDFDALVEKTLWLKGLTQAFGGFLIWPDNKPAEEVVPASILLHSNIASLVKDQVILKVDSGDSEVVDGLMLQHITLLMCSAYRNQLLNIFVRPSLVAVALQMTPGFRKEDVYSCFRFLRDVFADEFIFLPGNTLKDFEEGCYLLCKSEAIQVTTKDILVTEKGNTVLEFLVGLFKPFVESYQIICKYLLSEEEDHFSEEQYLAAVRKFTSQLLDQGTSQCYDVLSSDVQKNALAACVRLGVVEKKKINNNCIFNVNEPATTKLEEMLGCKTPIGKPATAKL
# UniProt O14653: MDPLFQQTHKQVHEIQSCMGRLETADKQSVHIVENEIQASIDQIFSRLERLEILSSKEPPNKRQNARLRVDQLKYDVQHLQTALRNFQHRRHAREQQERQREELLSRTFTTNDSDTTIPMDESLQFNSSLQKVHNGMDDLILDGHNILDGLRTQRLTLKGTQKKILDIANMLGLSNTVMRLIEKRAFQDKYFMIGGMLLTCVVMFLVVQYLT
# UniProt O75420: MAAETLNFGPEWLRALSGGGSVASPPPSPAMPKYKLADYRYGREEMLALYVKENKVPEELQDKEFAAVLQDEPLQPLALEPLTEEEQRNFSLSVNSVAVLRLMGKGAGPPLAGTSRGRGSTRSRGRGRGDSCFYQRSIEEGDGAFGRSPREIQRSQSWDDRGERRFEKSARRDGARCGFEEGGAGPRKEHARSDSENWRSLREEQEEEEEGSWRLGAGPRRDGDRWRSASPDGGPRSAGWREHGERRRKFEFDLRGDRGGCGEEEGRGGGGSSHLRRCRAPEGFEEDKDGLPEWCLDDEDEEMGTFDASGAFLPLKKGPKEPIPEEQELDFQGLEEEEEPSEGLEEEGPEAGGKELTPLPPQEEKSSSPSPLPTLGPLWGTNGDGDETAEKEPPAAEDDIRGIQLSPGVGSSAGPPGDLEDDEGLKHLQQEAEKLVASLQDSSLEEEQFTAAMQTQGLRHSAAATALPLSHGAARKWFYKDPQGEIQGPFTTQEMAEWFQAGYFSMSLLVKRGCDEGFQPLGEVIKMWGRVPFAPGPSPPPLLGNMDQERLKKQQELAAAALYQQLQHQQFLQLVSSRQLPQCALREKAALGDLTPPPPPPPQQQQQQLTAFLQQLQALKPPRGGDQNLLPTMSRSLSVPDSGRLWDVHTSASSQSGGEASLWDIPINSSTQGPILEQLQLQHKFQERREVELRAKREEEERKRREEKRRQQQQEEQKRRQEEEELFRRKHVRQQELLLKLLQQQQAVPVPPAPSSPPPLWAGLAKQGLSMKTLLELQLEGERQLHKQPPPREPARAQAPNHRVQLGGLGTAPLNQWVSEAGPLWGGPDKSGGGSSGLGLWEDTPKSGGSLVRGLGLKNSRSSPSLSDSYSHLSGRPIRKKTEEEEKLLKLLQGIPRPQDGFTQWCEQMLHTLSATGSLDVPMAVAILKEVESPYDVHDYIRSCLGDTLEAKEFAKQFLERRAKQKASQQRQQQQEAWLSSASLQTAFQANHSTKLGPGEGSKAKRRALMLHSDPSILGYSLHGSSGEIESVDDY
# UniProt Q9Y692: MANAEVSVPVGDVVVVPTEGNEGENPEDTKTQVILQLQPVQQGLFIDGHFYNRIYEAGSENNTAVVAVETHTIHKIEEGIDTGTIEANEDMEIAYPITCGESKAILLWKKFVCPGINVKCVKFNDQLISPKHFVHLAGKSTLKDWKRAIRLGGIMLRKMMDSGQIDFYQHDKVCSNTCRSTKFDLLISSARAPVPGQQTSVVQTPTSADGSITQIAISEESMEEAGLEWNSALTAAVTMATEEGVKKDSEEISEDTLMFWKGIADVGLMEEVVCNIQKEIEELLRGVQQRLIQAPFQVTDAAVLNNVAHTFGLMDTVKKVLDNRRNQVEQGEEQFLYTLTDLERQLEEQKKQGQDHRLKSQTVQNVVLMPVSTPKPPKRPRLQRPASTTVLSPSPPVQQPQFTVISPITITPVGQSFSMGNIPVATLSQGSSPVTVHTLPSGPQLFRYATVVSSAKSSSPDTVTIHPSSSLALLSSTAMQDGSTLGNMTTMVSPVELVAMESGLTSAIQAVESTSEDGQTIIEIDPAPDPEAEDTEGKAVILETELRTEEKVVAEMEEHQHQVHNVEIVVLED
# UniProt Q9Y223: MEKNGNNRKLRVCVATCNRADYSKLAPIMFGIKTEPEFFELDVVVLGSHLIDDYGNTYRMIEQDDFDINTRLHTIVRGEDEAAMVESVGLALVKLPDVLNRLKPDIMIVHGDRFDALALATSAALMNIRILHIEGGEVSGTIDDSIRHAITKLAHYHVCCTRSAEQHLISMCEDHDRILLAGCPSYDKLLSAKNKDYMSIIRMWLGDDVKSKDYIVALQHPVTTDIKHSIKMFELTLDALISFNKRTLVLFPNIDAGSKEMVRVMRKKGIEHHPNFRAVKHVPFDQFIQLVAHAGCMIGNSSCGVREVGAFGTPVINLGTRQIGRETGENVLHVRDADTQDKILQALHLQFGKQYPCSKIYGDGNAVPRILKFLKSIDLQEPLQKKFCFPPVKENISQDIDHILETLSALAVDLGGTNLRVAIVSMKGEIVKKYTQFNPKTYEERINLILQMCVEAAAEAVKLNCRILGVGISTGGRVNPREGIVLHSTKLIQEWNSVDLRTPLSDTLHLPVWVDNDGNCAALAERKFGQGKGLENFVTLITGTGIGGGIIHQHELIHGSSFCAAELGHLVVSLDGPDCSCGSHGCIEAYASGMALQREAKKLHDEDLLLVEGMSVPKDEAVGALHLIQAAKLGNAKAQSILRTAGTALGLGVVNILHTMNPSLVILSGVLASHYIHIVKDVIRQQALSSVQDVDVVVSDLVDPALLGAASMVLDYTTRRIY
# UniProt P63218: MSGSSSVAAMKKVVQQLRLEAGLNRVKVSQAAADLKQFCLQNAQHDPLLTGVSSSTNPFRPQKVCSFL
# UniProt Q86SX6: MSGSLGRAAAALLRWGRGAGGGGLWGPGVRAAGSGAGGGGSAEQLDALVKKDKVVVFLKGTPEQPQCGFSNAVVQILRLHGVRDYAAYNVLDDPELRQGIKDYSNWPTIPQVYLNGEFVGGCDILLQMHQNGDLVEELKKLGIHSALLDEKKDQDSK
# UniProt P00367: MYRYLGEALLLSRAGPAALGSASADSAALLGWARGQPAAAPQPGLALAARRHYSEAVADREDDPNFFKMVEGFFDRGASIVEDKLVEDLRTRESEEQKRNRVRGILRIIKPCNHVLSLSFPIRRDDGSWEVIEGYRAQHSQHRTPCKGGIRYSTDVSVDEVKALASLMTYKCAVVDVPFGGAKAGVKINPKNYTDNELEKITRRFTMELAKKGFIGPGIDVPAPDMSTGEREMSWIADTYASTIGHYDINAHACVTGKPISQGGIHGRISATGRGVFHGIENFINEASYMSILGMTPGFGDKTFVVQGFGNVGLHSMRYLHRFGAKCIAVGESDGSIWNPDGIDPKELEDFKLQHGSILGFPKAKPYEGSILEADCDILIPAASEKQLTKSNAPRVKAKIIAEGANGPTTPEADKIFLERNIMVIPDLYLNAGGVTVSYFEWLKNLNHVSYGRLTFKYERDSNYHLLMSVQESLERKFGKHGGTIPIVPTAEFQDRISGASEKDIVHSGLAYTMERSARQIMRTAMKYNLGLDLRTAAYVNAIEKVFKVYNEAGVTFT
# UniProt Q5VW38: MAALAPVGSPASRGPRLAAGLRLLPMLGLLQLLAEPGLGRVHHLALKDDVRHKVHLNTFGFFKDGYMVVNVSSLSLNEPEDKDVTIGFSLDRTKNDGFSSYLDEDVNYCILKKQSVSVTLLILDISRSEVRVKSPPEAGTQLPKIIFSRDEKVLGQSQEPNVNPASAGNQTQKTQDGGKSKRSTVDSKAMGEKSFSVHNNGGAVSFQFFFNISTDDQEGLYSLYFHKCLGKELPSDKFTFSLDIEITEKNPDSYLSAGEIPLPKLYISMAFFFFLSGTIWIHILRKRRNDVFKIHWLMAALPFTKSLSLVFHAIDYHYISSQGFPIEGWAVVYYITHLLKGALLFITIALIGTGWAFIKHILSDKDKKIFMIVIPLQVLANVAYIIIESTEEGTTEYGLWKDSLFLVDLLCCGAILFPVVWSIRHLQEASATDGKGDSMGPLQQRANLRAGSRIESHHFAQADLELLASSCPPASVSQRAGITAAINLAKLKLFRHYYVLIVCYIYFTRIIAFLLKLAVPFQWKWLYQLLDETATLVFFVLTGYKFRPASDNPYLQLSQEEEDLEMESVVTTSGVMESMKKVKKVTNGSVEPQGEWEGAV
# UniProt Q8N954: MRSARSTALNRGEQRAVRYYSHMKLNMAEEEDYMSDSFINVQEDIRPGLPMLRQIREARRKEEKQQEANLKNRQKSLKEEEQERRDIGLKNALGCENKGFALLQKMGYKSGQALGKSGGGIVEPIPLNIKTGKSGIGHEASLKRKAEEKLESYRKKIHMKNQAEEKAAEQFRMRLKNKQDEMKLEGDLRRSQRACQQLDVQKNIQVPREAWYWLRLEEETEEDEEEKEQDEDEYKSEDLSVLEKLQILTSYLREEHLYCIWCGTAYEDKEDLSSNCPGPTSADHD
# UniProt P08754, whole entry, looked up: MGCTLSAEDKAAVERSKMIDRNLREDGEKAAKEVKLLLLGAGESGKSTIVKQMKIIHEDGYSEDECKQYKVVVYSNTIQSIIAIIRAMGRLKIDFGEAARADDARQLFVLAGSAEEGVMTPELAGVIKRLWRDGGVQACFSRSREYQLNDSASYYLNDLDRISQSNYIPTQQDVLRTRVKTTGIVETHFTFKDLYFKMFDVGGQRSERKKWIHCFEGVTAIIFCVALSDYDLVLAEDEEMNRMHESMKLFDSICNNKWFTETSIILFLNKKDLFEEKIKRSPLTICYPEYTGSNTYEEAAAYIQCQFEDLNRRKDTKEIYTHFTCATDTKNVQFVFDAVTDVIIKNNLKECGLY
# UniProt Q9H4A5: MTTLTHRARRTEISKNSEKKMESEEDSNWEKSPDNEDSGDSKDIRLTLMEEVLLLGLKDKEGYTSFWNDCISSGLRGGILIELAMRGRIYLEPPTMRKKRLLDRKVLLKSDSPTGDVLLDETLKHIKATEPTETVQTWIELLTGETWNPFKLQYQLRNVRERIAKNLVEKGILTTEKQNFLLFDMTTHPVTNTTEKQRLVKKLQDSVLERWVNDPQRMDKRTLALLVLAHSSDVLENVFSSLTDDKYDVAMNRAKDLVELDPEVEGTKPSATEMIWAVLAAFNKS
# UniProt Q86WP2: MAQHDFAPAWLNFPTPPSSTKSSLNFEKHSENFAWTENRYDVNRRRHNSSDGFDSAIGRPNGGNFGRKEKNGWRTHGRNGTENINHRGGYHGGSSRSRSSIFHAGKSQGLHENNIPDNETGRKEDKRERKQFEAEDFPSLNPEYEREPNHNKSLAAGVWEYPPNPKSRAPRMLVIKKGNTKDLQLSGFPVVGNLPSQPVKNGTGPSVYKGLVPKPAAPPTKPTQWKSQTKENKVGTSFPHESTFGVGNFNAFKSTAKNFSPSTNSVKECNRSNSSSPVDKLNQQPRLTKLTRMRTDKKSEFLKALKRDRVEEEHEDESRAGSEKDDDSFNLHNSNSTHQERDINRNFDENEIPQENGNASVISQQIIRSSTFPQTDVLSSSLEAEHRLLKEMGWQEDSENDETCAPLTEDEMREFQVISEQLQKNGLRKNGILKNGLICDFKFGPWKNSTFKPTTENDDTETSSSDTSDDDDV
# UniProt P17900: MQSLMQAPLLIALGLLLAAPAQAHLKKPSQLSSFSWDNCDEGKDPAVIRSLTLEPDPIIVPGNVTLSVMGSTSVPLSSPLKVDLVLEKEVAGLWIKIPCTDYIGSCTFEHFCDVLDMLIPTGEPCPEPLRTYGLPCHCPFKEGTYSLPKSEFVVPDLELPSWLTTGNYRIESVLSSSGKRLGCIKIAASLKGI
# The other results are listed elsewhere or left out.
# How the values were obtained:
# Experiment in all cases: log2 fold change, soluble protein after heating vs DMSO (PISA); higher = thermal stabilisation; K562 lysate, 10 uM; active = over 0.2 and 3.5 SD of the protein, either way, in both replicates (recomputed)
# alvocidib = compound: CN1CC[C@H](c2c(O)cc(O)c3c(=O)cc(-c4ccccc4Cl)oc23)[C@H](O)C1 [alvocidib]
# Summary of the method: (§1)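 Quantification was by TMTpro 16plex LC-MS/MS with equalised channel sums, applied to the supernatant after 21,000xg for 90 min. Samples were crude K562 extract at 1 mg/mL protein in PBS pH 7.4 with 1 mM MgCl2, treated with 10 μM compound for 30 min, heated for 3 min across 48°C-58°C, pooled and brought to 0.5% NP-40 at 4°C. Values are log-two fold changes in thermal stability relative to solvent controls, from duplicates.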
# Tubastatin A = compound: CN1CCc2c(c3ccccc3n2Cc2ccc(C(=O)NO)cc2)C1 [Tubastatin A]
# Summary of the method: as §1
# [1] = compound: CNC(=O)C1=CC=CC=C1NC2=NC(=NC=C2Cl)NC3=C(C=C(C=C3)N4CCOCC4)OC
# Summary of the method: as §1
# defactinib = compound: CNC(=O)c1ccc(Nc2ncc(C(F)(F)F)c(NCc3nccnc3N(C)S(C)(=O)=O)n2)cc1 [defactinib]
# Summary of the method: as §1
# [2] = compound: CNc1nc(-c2ccc3c(N)n[nH]c3c2)cc(N2C[C@@H](C(=O)NC3CCCCC3)CC[C@H]2C)n1
# Summary of the method: as §1
# encorafenib = compound: COC(=O)N[C@@H](C)CNc1nccc(-c2cn(C(C)C)nc2-c2cc(Cl)cc(NS(C)(=O)=O)c2F)n1 [encorafenib]
# Summary of the method: as §1
# [3] = compound: COC(=O)[C@H](CCSC)NC(=O)C1=C(C=C(C=C1)NC[C@H](CS)N)C2=CC=CC=C2
# Summary of the method: as §1
# alisertib = compound: COc1cc(Nc2ncc3c(n2)-c2ccc(Cl)cc2C(c2c(F)cccc2OC)=NC3)ccc1C(=O)O [alisertib]
# Summary of the method: as §1
# [4] = compound: COc1cc2nc(-c3cc(F)ccc3O)nc(N[C@@H]3CNC[C@H]3C(C)(C)O)c2cc1OC
# Summary of the method: as §1
# gefitinib = compound: COc1cc2ncnc(Nc3ccc(F)c(Cl)c3)c2cc1OCCCN1CCOCC1 [gefitinib]
# Summary of the method: as §1
# lapatinib = compound: CS(=O)(=O)CCNCc1ccc(-c2ccc3ncnc(Nc4ccc(OCc5cccc(F)c5)c(Cl)c4)c3c2)o1 [lapatinib]
# Summary of the method: as §1
# pictilisib = compound: CS(=O)(=O)N1CCN(Cc2cc3nc(-c4cccc5[nH]ncc45)nc(N4CCOCC4)c3s2)CC1 [pictilisib]
# Summary of the method: as §1
# crizotinib = compound: C[C@@H](Oc1cc(-c2cnn(C3CCNCC3)c2)cnc1N)c1c(Cl)ccc(F)c1Cl [crizotinib]
# Summary of the method: as §1
# [5] = compound: C[C@H](C1=CC=C(C=C1)C(=O)NC2=C3C=CNC3=NC=C2)N
# Summary of the method: as §1
# duvelisib = compound: C[C@H](Nc1ncnc2nc[nH]c12)c1cc2cccc(Cl)c2c(=O)n1-c1ccccc1 [duvelisib]
# Summary of the method: as §1
# gandotinib = compound: Cc1cc(Nc2cc(CN3CCOCC3)c3nc(C)c(Cc4ccc(Cl)cc4F)n3n2)n[nH]1 [gandotinib]
# Summary of the method: as §1
# tozasertib = compound: Cc1cc(Nc2cc(N3CCN(C)CC3)nc(Sc3ccc(NC(=O)C4CC4)cc3)n2)n[nH]1 [tozasertib]
# Summary of the method: as §1
# doramapimod = compound: Cc1ccc(-n2nc(C(C)(C)C)cc2NC(=O)Nc2ccc(OCCN3CCOCC3)c3ccccc23)cc1 [doramapimod]
# Summary of the method: as §1
# bafetinib = compound: Cc1ccc(NC(=O)c2ccc(CN3CC[C@H](N(C)C)C3)c(C(F)(F)F)c2)cc1Nc1nccc(-c2cncnc2)n1 [bafetinib]
# Summary of the method: as §1
# [6] = compound: Cc1cccc(CC(=O)N2CCc3c2ccc(-c2cn(C)c4ncnc(N)c24)c3F)n1
# Summary of the method: as §1
Target,log2 fold change (alvocidib),log2 fold change (Tubastatin A),log2 fold change [1],log2 fold change (defactinib),log2 fold change [2],log2 fold change (encorafenib),log2 fold change [3],log2 fold change (alisertib),log2 fold change [4],log2 fold change (gefitinib),log2 fold change (lapatinib),log2 fold change (pictilisib),log2 fold change (crizotinib),log2 fold change [5],log2 fold change (duvelisib),log2 fold change (gandotinib),log2 fold change (tozasertib),log2 fold change (doramapimod),log2 fold change (bafetinib),log2 fold change [6]
GMPR2 isoform 2 (UniProt Q9P2T1),inactive: -0.003,inactive: 0.018,inactive: 0.023,inactive: -0.017,inactive: -0.006,inactive: -0.002,inactive: -0.042,inactive: 0.012,inactive: 0.008,inactive: 0.001,inactive: -0.029,inactive: -0.016,inactive: 0.072,inactive: -0.03,inactive: 0.008,inactive: -0.003,inactive: -0.012,inactive: -0.009,inactive: 0.035,inactive: -0.026
GNPAT (UniProt O15228),inactive: 0.034,inactive: 0.034,inactive: 0.01,inactive: 0.01,inactive: -0.012,inactive: 0.059,inactive: -0.041,inactive: 0.044,inactive: -0.09,inactive: -0.052,inactive: -0.025,inactive: -0.047,inactive: -0.144,inactive: -0.039,inactive: -0.017,inactive: 0.107,inactive: 0.004,inactive: 0.029,inactive: -0.106,inactive: 0.145
GOSR2 isoform 2 (UniProt O14653),inactive: -0.034,inactive: -0.17,inactive: 0.015,inactive: -0.024,inactive: 0,inactive: 0.017,inactive: -0.127,inactive: 0.007,inactive: -0.039,inactive: 0.029,inactive: -0.062,inactive: -0.101,inactive: 0.04,inactive: 0.047,inactive: 0.002,inactive: -0.085,inactive: -0.009,inactive: -0.042,inactive: -0.066,inactive: 0.053
GPS1 (UniProt A8K070),inactive: 0.007,inactive: -0.074,inactive: 0.092,inactive: 0.064,inactive: -0.019,inactive: -0.026,inactive: 0.03,inactive: -0.001,inactive: -0.009,inactive: -0.098,inactive: 0.012,inactive: -0.049,inactive: 0.065,inactive: -0.003,inactive: 0.017,inactive: -0.051,inactive: -0.021,inactive: -0.04,inactive: -0.039,inactive: -0.028
GIGYF1 (UniProt O75420),inactive: -0.058,inactive: -0.089,inactive: 0.01,inactive: -0.068,inactive: 0.068,inactive: 0.089,inactive: 0.009,inactive: 0.057,inactive: -0.019,inactive: 0.015,inactive: 0.049,inactive: -0.039,inactive: 0.019,inactive: -0.084,inactive: -0.026,inactive: 0.063,inactive: -0.043,inactive: 0.007,inactive: 0,inactive: 0.121
GMEB1 (UniProt Q9Y692),inactive: -0.058,inactive: 0,inactive: -0.005,inactive: 0.004,inactive: 0.008,inactive: 0.009,inactive: 0.01,inactive: 0.009,inactive: 0,inactive: 0.032,inactive: -0.033,inactive: -0.044,inactive: -0.007,inactive: -0.084,inactive: -0.001,inactive: 0.018,inactive: 0.009,inactive: 0,inactive: -0.002,inactive: 0.07
GNE isoform 2 (UniProt Q9Y223),inactive: 0.028,inactive: -0.12,inactive: 0.016,inactive: -0.011,inactive: -0.024,inactive: -0.008,inactive: 0.176,inactive: 0.041,inactive: 0.026,inactive: -0.014,inactive: 0.012,inactive: -0.005,inactive: -0.053,inactive: -0.01,inactive: -0.011,inactive: -0.127,inactive: -0.008,inactive: 0.021,inactive: -0.031,inactive: 0.034
GNG5 (UniProt P63218),inactive: 0.216,inactive: 0.062,inactive: 0.052,inactive: 0.124,inactive: -0.018,inactive: 0.041,inactive: -0.063,inactive: -0.049,inactive: -0.026,inactive: -0.101,inactive: 0.019,inactive: 0.019,inactive: -0.007,inactive: 0.158,inactive: -0.003,inactive: -0.048,inactive: 0.006,inactive: 0.058,inactive: -0.002,inactive: -0.084
GLRX5 (UniProt Q86SX6),inactive: 0.012,inactive: 0.044,inactive: -0.017,inactive: 0.042,inactive: 0.081,inactive: 0.006,inactive: -0.062,inactive: 0.023,inactive: -0.05,inactive: -0.141,inactive: 0.123,inactive: -0.05,inactive: 0.014,inactive: 0.186,inactive: 0.027,inactive: -0.071,inactive: 0.034,inactive: 0,inactive: -0.024,inactive: -0.008
GLUD1 (UniProt P00367),inactive: 0.007,inactive: 0.038,inactive: 0.011,inactive: -0.013,inactive: -0.033,inactive: -0.014,inactive: 0.001,inactive: -0.003,inactive: -0.028,inactive: -0.009,inactive: 0.007,inactive: 0.142,inactive: -0.021,inactive: -0.03,inactive: -0.029,inactive: 0.079,inactive: 0,inactive: 0.014,inactive: 0.061,inactive: -0.002
GPR107 isoform 2 (UniProt Q5VW38),inactive: 0.003,inactive: -0.018,inactive: 0.012,inactive: 0.042,inactive: 0.046,inactive: 0.034,inactive: -0.034,inactive: -0.031,inactive: 0.03,inactive: 0.132,inactive: -0.005,inactive: -0.032,inactive: -0.022,inactive: -0.066,inactive: -0.045,inactive: 0.071,inactive: -0.037,inactive: 0.007,inactive: -0.054,inactive: 0.025
GPATCH11 (UniProt Q8N954),inactive: -0.048,inactive: 0.074,inactive: -0.015,inactive: 0.008,inactive: 0.07,inactive: 0.018,inactive: -0.046,inactive: -0.025,inactive: 0.007,inactive: 0,inactive: -0.002,inactive: -0.018,inactive: 0.01,inactive: -0.031,inactive: 0.006,inactive: 0.044,inactive: 0.024,inactive: 0.026,inactive: -0.013,inactive: 0.029
GNAI3 (UniProt P08754),inactive: -0.033,inactive: -0.013,inactive: 0.03,inactive: -0.059,inactive: -0.025,inactive: 0.008,inactive: -0.034,inactive: -0.022,inactive: 0.098,inactive: -0.009,inactive: 0.014,inactive: 0.032,inactive: 0.007,inactive: -0.032,inactive: -0.048,inactive: 0.004,inactive: 0.026,inactive: 0.019,inactive: 0.051,inactive: 0.007
GOLPH3L (UniProt Q9H4A5),inactive: 0.018,inactive: -0.083,inactive: -0.005,inactive: -0.077,inactive: 0.008,inactive: 0.063,active: -0.395,inactive: 0.026,inactive: -0.059,inactive: 0.018,inactive: 0.019,inactive: -0.048,inactive: -0.106,inactive: -0.028,inactive: -0.027,inactive: -0.05,inactive: -0.071,inactive: -0.009,inactive: -0.146,inactive: 0.029
GPBP1 isoform 2 (UniProt Q86WP2),inactive: -0.023,inactive: -0.112,inactive: 0.019,inactive: -0.036,inactive: 0.128,inactive: 0.001,inactive: -0.02,inactive: 0.01,inactive: 0.028,inactive: 0.004,inactive: -0.066,inactive: 0.034,inactive: 0.042,inactive: -0.024,inactive: -0.024,inactive: 0.081,inactive: -0.012,inactive: 0.076,inactive: 0.011,inactive: 0.041
GM2A (UniProt P17900),inactive: 0.015,inactive: 0.092,inactive: -0.018,inactive: 0.033,inactive: -0.021,inactive: -0.007,inactive: 0.093,inactive: 0.009,inactive: -0.016,inactive: 0.096,inactive: 0.085,inactive: 0.204,inactive: 0.047,inactive: 0.068,inactive: -0.027,inactive: 0.421,inactive: 0.082,inactive: -0.03,inactive: 0.057,inactive: -0.059

# At a glance, part of the list above:
Target,log2 fold change (alvocidib),log2 fold change (Tubastatin A),log2 fold change [1],log2 fold change (defactinib),log2 fold change [2],log2 fold change (encorafenib),log2 fold change [3],log2 fold change (alisertib),log2 fold change [4],log2 fold change (gefitinib),log2 fold change (lapatinib),log2 fold change (pictilisib),log2 fold change (crizotinib),log2 fold change [5],log2 fold change (duvelisib),log2 fold change (gandotinib),log2 fold change (tozasertib),log2 fold change (doramapimod),log2 fold change (bafetinib),log2 fold change [6]
GMEB1 (UniProt Q9Y692),inactive: -0.058,inactive: 0,inactive: -0.005,inactive: 0.004,inactive: 0.008,inactive: 0.009,inactive: 0.01,inactive: 0.009,inactive: 0,inactive: 0.032,inactive: -0.033,inactive: -0.044,inactive: -0.007,inactive: -0.084,inactive: -0.001,inactive: 0.018,inactive: 0.009,inactive: 0,inactive: -0.002,inactive: 0.07
GNE isoform 2 (UniProt Q9Y223),inactive: 0.028,inactive: -0.12,inactive: 0.016,inactive: -0.011,inactive: -0.024,inactive: -0.008,inactive: 0.176,inactive: 0.041,inactive: 0.026,inactive: -0.014,inactive: 0.012,inactive: -0.005,inactive: -0.053,inactive: -0.01,inactive: -0.011,inactive: -0.127,inactive: -0.008,inactive: 0.021,inactive: -0.031,inactive: 0.034
